We go through one substance from publication PMC7140458.

By UniProt entry, the sequences of proteins in these tests, tags left out.
UniProt O35253: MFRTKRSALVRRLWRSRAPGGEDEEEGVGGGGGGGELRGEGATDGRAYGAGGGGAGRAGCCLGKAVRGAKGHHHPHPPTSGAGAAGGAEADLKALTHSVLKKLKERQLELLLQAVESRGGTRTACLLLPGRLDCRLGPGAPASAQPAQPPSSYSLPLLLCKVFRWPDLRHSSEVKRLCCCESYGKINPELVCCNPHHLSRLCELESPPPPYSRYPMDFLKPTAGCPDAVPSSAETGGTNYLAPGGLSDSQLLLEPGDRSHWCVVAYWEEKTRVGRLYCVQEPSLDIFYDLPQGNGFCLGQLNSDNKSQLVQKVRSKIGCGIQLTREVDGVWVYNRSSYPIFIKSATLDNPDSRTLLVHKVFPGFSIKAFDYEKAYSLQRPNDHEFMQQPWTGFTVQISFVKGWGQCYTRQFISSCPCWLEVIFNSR

This assay addresses Microtubule actin crosslinking factor 1 (MACF1) (mouse (endogenous in mouse MSCs)) (UniProt Q9QXZ0). Put plainly: co-IP; anti-MACF1 immunoprecipitation from osteo-induced wild type MSCs, SMAD7 detected in the precipitate.

No constants are given. Whether binding was seen depends on the method and setting. In cells and extracts the contact can be indirect. Some binding calls cover weakened binding; strength is not graded here.

On to “SMAD family member 7 (SMAD7) (from UniProt O35253 1-426)”, for which the binding entry is “binds”.
